# Source: paper PMC4365034
# Sequences of proteins named here, by UniProt entry; tags and fusion partners are left off. A change or cut given only in a name is not applied to a line headed by its entry.
# UniProt P26599: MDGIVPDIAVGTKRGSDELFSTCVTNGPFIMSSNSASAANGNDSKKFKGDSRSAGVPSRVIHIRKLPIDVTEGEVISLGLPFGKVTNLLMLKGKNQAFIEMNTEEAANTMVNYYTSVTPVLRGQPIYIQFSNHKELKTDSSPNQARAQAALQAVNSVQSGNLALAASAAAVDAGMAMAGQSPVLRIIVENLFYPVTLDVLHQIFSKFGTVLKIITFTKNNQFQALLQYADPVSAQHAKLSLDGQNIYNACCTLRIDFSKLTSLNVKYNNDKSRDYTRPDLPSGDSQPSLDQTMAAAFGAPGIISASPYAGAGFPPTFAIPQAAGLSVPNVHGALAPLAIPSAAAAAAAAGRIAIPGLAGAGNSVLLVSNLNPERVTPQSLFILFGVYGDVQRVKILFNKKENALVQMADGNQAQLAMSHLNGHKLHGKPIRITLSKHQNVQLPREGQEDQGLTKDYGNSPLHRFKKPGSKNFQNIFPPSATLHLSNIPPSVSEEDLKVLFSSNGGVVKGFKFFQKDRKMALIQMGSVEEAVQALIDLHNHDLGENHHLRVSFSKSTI
# No constants are given. Whether binding was seen depends on the method and setting. In cells and extracts the contact can be indirect. For part of these data: Sequences can lack the tags named with a protein.
# T1: GST-SXL (UniProt P19339)
# T1 sequence: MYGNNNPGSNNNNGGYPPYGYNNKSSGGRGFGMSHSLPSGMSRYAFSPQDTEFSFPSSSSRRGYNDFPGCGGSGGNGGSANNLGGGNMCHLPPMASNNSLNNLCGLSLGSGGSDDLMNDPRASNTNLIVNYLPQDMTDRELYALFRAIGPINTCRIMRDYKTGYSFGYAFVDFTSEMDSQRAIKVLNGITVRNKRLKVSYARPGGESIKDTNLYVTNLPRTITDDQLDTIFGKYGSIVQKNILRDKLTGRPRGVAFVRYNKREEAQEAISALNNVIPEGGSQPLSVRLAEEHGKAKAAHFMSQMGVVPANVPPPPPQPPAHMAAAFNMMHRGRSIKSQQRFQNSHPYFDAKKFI
# Columns and labels:
# GST-SXL = biological target: T1, GST-SXL; assay: pull-down; GST-PTB or GST-SXL as bait; MS2 fusion peptides transcribed and translated in vitro; RNase A 25 ug/ml after translation and 0.5 ug/ml in the pre-incubation, 3 h at 4°C; only the target purified
# [1] = biological target: GST-PTB full-length Y247Q (UniProt P26599); assay: pull-down; GST-PTB RRM2 or GST-PTB full-length (wild type, Y247Q) as bait, HeLa nuclear extract; Western blot with antibodies against Matrin3 and Raver1; only the target purified
binding (GST-SXL),binding [1],Binder
no binding,–,"PLPTPPGVSLLGEPPKDYRIP (peptide, UniProt Q9CW46 491-511) [Raver1 491-511 peptide fused to MS2 (FLAG-Raver1 PRI)]"
–,no binding,"Raver1 (endogenous, HeLa nuclear extract) (protein, UniProt Q8IY67 1-606) MAADVSVTHRPPLSPKSGAEVEAGDAAERRAPEEELPPLDPEEIRKRLEHTERQFRNRRKILIRGLPGDVTNQEVHDLLSDYELKYCFVDKYKGTAFVTLLNGEQAEAAINAFHQSRLRERELSVQLQPTDALLCVANLPPSLTQQQFEELVRPFGSLERCFLVYSERTGQSKGYGFAEYMKKDSAARAKSDLLGKPLGPRTLYVHWTDAGQLTPALLHSRCLCVDRLPPGFNDVDALCRALSAVHSPTFCQLACGQDGQLKGFAVLEYETAEMAEEAQQQADGLSLGGSHLRVSFCAPGPPGRSMLAALIAAQATALNRGKGLLPEPNILQLLNNLGPSASLQLLLNPLLHGSAGGKQGLLGAPPAMPLLNGPALSTALLQLALQTQGQKKPGILGDSPLGALQPGAQPANPLLGELPAGGGLPPELPPRRGKPPPLLPSVLGPAGGDREALGLGPPAAQLTPPPAPVGLRGSGLRGPLSHFYSGSPTSYFTSGLQAGLKQSHLSKAIGSSPLGSGEGLLGLSPGPNGHSHLLKVRAGGGDMQGWEAPAPQRPLTRPALPSVSRPHWAARNAALPTCCPRPSPAQKAAMWASTPRASAATTRTPT"
no binding,–,"QQSTNPAPGILGPPPPSFHL (peptide, UniProt P43243 346-365) [Matrin3 346-365 peptide fused to MS2 (FLAG-Matrin3 PRI-MS2)]"
